Measured values published in the supplement of paper PMC10849652.
The list shows a part of the results.

Protein sequences, listed by entry. Tags and fused reporters are not part of them. Lines headed by an entry give the natural chain unless they say otherwise; changes in a name come on top.
UniProt O00186: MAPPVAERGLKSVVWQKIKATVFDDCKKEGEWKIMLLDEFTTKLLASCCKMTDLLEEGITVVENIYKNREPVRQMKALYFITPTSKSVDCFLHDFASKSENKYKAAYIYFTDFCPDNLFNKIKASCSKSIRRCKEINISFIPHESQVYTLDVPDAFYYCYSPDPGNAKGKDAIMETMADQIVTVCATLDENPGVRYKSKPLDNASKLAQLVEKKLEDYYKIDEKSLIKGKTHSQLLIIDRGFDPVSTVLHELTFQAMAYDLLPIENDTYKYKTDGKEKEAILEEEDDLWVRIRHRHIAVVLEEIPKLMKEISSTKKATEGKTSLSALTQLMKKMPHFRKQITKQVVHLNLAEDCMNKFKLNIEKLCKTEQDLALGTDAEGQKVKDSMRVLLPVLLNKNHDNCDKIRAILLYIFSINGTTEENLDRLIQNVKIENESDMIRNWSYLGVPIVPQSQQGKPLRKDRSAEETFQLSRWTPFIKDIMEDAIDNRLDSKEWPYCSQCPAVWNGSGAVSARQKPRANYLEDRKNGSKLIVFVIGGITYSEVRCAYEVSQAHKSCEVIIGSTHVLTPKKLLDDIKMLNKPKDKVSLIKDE
UniProt Q15750: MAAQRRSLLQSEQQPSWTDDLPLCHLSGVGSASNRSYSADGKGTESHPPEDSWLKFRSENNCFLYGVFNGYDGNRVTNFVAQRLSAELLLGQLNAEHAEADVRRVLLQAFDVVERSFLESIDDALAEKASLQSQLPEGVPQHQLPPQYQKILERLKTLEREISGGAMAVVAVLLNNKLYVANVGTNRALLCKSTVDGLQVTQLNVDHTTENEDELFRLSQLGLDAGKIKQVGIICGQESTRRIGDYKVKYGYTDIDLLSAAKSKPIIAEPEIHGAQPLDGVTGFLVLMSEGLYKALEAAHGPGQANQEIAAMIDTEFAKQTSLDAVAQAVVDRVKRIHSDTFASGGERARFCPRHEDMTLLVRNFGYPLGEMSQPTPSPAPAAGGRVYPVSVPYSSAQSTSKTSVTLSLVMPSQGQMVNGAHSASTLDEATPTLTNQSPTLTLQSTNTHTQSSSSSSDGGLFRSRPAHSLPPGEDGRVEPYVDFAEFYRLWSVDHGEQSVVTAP
UniProt P0DMM9: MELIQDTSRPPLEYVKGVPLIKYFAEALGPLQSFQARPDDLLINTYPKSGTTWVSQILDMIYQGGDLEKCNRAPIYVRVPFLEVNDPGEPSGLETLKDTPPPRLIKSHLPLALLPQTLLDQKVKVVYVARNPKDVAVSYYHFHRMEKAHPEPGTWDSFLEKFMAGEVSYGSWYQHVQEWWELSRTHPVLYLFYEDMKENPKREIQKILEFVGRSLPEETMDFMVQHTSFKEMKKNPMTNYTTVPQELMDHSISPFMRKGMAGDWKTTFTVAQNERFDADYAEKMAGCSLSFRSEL
UniProt Q8IYB8: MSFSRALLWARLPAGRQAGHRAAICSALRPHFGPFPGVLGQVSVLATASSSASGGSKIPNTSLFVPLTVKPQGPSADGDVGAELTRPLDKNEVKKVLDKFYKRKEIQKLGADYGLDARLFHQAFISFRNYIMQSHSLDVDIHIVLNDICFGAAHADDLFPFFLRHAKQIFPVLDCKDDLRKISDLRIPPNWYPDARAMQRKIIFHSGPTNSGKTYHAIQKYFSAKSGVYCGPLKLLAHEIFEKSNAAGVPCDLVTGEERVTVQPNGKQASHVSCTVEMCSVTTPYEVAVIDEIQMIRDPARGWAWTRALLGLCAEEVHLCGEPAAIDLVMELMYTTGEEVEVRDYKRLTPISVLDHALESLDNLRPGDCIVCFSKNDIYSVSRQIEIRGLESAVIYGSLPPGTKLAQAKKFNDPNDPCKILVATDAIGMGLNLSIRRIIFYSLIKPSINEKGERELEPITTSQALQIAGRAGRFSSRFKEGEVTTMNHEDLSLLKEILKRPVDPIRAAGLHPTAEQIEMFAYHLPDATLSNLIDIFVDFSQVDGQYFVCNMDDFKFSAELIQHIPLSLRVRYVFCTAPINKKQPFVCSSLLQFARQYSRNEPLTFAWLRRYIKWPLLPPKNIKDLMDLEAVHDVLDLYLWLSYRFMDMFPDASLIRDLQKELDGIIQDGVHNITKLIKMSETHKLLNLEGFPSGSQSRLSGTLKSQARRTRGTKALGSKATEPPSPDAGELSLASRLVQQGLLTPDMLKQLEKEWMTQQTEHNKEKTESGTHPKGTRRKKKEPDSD
UniProt Q9NZ72: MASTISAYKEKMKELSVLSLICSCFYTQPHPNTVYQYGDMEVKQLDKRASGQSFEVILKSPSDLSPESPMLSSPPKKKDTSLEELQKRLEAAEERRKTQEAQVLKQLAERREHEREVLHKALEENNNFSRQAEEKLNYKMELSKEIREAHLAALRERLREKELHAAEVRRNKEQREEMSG
UniProt O43426, whole entry, looked up: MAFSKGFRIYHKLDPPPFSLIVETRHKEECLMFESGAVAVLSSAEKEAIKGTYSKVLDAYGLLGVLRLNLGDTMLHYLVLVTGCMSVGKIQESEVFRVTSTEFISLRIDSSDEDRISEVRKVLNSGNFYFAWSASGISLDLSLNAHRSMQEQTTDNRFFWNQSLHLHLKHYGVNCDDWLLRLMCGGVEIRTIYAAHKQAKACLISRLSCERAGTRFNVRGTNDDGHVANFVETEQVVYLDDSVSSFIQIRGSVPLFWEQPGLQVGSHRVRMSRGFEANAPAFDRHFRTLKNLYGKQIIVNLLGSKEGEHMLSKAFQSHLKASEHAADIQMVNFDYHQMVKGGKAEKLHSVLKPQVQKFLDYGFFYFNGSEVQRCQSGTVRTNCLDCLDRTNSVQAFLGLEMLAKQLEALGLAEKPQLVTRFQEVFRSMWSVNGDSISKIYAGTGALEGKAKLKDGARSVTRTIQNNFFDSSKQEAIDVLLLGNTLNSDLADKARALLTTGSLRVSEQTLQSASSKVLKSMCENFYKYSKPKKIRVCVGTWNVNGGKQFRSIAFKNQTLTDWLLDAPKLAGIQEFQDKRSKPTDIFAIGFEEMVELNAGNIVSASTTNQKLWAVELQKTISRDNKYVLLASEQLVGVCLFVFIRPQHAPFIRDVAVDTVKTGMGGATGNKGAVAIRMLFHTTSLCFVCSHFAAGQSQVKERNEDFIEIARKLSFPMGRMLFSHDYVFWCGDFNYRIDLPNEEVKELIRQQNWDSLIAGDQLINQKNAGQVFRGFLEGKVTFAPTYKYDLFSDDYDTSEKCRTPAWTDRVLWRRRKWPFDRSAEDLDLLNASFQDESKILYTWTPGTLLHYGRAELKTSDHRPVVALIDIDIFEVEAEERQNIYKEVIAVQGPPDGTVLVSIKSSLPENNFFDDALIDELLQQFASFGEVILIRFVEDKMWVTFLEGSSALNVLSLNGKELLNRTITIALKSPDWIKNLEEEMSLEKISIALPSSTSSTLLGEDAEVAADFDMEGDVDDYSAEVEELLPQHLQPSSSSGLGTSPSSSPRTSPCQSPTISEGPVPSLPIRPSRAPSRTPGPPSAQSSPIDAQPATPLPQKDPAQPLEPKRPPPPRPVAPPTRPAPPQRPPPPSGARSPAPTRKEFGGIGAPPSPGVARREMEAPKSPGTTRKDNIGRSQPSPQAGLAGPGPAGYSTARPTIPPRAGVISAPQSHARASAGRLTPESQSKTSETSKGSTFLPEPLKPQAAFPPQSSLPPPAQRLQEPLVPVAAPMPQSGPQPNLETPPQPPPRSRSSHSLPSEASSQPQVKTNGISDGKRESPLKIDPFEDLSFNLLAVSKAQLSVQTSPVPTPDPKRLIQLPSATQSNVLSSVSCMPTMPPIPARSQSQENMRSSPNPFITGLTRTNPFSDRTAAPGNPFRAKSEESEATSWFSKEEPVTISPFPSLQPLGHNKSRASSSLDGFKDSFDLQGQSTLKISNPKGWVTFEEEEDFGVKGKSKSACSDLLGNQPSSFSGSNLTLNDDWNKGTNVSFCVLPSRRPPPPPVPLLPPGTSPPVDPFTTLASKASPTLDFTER
UniProt Q13277: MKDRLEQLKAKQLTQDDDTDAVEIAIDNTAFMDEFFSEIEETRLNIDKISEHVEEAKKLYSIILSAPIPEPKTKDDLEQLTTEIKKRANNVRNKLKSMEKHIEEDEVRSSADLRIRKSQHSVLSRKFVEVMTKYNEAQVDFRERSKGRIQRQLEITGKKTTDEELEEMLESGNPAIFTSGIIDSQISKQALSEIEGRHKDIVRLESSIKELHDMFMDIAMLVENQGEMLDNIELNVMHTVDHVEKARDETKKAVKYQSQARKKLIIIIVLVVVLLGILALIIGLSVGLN
UniProt P37837: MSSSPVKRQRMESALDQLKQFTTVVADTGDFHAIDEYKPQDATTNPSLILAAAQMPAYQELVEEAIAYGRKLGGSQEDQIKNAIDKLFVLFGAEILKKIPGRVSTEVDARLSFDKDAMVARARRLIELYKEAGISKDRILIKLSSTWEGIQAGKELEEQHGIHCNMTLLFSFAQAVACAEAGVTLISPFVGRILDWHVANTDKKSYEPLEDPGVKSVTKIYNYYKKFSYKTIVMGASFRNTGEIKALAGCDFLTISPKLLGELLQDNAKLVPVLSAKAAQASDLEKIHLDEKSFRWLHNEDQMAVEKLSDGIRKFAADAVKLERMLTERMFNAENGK
UniProt Q12962, whole entry, looked up: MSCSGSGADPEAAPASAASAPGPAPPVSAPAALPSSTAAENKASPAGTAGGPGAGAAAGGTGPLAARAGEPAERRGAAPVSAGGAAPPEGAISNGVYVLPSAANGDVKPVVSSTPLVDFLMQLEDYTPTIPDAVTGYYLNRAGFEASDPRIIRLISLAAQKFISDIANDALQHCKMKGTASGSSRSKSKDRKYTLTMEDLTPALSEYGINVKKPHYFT
UniProt Q6NXT6: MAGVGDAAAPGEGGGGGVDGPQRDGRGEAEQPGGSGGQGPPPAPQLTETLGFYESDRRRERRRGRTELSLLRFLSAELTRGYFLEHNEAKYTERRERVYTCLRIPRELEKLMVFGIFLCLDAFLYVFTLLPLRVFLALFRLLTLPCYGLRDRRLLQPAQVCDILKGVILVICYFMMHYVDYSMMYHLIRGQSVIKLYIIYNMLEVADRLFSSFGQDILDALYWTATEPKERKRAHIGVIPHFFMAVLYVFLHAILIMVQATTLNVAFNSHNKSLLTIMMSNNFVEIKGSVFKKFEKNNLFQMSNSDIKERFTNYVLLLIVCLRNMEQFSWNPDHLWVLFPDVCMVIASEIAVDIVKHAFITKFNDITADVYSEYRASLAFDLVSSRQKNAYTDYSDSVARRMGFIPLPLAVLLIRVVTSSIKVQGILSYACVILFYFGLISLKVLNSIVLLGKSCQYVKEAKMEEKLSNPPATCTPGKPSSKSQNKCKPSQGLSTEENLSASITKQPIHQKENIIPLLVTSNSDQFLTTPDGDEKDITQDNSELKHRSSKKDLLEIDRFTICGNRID
UniProt Q7Z422: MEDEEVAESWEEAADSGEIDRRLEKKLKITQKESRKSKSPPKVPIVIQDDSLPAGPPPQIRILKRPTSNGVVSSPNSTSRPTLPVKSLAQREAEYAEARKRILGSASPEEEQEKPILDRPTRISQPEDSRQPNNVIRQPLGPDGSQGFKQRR
UniProt Q12846: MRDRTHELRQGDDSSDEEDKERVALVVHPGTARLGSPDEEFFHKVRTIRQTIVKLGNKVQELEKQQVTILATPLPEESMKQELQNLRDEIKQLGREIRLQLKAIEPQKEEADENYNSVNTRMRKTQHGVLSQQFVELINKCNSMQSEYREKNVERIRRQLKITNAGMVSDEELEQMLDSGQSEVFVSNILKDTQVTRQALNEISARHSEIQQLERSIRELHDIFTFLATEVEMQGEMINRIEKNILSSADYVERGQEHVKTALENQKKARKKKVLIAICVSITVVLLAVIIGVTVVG
UniProt Q6P1N9: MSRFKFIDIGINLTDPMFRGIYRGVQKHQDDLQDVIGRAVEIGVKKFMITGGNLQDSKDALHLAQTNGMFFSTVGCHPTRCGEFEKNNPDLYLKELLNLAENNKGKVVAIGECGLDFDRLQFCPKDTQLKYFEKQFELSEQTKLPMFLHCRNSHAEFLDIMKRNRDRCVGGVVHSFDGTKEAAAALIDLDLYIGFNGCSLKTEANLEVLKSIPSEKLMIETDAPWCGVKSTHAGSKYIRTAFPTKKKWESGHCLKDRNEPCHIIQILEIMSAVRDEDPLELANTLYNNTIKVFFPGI

Experiments:
Test in all cases: log2 fold change, soluble protein after heating vs DMSO (PISA); higher = thermal stabilisation; K562 cells, 10 uM, 30 min; active = over 0.2 and 3.5 SD of the protein, either way, in both replicates (recomputed)
[1] = compound: COC1=CC=C(C=C1)CN2C=CC3=C2C=C(C=C3)C(=O)NO
Method in brief: (§1)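 K562 cells at 2×10^6 cells/mL were treated for 30 min with 10 μM compound, and aliquots were heated for 3 min over 48°C-58°C before pooling. Extraction used PBS with 0.5% NP-40 at 4°C, and soluble protein was the supernatant after 21,000xg for 90 min, measured by TMTpro 16plex LC-MS/MS with channel sums equalised. Thermal stability values, relative to control samples and from duplicates, are log2 fold changes.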

[2] = compound: CON(C)C(=O)N1N=C(c2cc(F)ccc2F)S[C@@]1(CCCN)c1ccccc1 [filanesib]
Method in brief: as §1

[3] = compound: CO[C@H]1C[C@@H]2CC[C@@H](C)[C@@](O)(O2)C(=O)C(=O)N2CCCC[C@H]2C(=O)O[C@H]([C@H](C)C[C@@H]2CC[C@H](n3cnnn3)[C@H](OC)C2)CC(=O)[C@H](C)/C=C(\C)[C@@H](O)[C@@H](OC)C(=O)[C@H](C)C[C@H](C)/C=C/C=C/C=C/1C [zotarolimus]
Method in brief: as §1

[4] = compound: COc1cc(C(=O)O)ccc1NC(=O)[C@@H]1N[C@@H](CC(C)(C)C)[C@](C#N)(c2ccc(Cl)cc2F)[C@H]1c1cccc(Cl)c1F [idasanutlin]
Method in brief: as §1

[5] = compound: COc1cc(Nc2ncc3c(n2)-c2ccc(Cl)cc2C(c2c(F)cccc2OC)=NC3)ccc1C(=O)O [alisertib]
Method in brief: as §1

[6] = compound: COc1cc2nc(-c3cc(F)ccc3O)nc(N[C@@H]3CNC[C@H]3C(C)(C)O)c2cc1OC
Method in brief: as §1

[7] = compound: COc1cc2ncnc(Nc3ccc(F)c(Cl)c3)c2cc1OCCCN1CCOCC1 [gefitinib]
Method in brief: as §1

[8] = compound: COc1cccc2cc(-c3nc([C@H]4CC[C@H](C(=O)O)CC4)n4ncnc(N)c34)[nH]c12
Method in brief: as §1

[9] = compound: CS(=O)(=O)CCNCc1ccc(-c2ccc3ncnc(Nc4ccc(OCc5cccc(F)c5)c(Cl)c4)c3c2)o1 [lapatinib]
Method in brief: as §1

[10] = compound: CS(=O)(=O)N1CCN(Cc2cc3nc(-c4cccc5[nH]ncc45)nc(N4CCOCC4)c3s2)CC1 [pictilisib]
Method in brief: as §1

[11] = compound: CS(=O)(=O)c1ccc(-c2cnc(N)c(C(=O)Nc3ccccc3)n2)cc1
Method in brief: as §1

[12] = compound: C[C@@H](Oc1cc(-c2cnn(C3CCNCC3)c2)cnc1N)c1c(Cl)ccc(F)c1Cl [crizotinib]
Method in brief: as §1

[13] = compound: C[C@@H]1COCCN1C2=NC(=NC(=C2)C3(CC3)S(=O)(=O)C)C4=C5C=CNC5=CC=C4
Method in brief: as §1

[14] = compound: C[C@H](C1=CC=C(C=C1)C(=O)NC2=C3C=CNC3=NC=C2)N
Method in brief: as §1

[15] = compound: C[C@H](Nc1ncnc2nc[nH]c12)c1cc2cccc(Cl)c2c(=O)n1-c1ccccc1 [duvelisib]
Method in brief: as §1

[16] = compound: Cc1cc(Nc2cc(CN3CCOCC3)c3nc(C)c(Cc4ccc(Cl)cc4F)n3n2)n[nH]1 [gandotinib]
Method in brief: as §1

[17] = compound: Cc1cc(Nc2cc(N3CCN(C)CC3)nc(Sc3ccc(NC(=O)C4CC4)cc3)n2)n[nH]1 [tozasertib]
Method in brief: as §1

[18] = compound: Cc1cc(SCc2sc(-c3ccc(C(F)(F)F)cc3)nc2C)ccc1OCC(=O)O
Method in brief: as §1

[19] = compound: Cc1ccc(-n2nc(C(C)(C)C)cc2NC(=O)Nc2ccc(OCCN3CCOCC3)c3ccccc23)cc1 [doramapimod]
Method in brief: as §1

[20] = compound: Cc1ccc(C(=O)N(CCCN)[C@@H](c2nc3cc(Cl)ccc3c(=O)n2Cc2ccccc2)C(C)C)cc1 [ispinesib]
Method in brief: as §1

Measured: log2 fold change

STXBP3 (UniProt O00186)
inactive: [1] 0.169 | [2] -0.002 | [3] 0.098 | [4] 0.01 | [5] 0.003 | [6] 0.012 | [7] -0.016 | [8] -0.092 | [9] 0.042 | [10] -0.019 | [11] 0.068 | [12] -0.186 | [13] 0.006 | [14] 0.104 | [15] -0.01 | [16] -0.164 | [17] 0.029 | [18] 0.132 | [19] 0.076 | [20] -0.133

TAB1 (UniProt Q15750)
inactive: [1] 0.106 | [2] -0.037 | [3] 0.019 | [4] -0.031 | [5] -0.094 | [6] 0.181 | [7] -0.07 | [8] -0.081 | [9] -0.128 | [10] 0.019 | [11] 0.058 | [12] -0.06 | [13] 0.006 | [14] 0.04 | [15] -0.039 | [16] -0.081 | [17] 0.067 | [18] 0.074 | [19] -0.05 | [20] 0.001

SULT1A3 isoform 3 (UniProt P0DMM9)
inactive: [1] -0.02 | [2] -0.085 | [3] -0.076 | [4] 0.007 | [5] 0.267 | [6] 0.083 | [7] -0.004 | [8] -0.055 | [9] -0.06 | [10] -0.124 | [11] 0.058 | [12] 0.021 | [13] 0.082 | [14] 0.056 | [15] 0.06 | [16] 0.04 | [17] 0.124 | [18] 0.011 | [19] -0.028 | [20] -0.048

SYNJ2BP-COX16, A0A087WYV9
inactive: [1] -0.078 | [2] 0.003 | [3] -0.042 | [4] 0.064 | [5] 0.002 | [6] -0.007 | [7] -0.01 | [8] 0.033 | [9] 0.033 | [10] 0.067 | [11] -0.019 | [12] 0.012 | [13] -0.003 | [14] 0.041 | [15] 0.061 | [16] -0.063 | [17] 0.002 | [18] -0.026 | [19] 0.026 | [20] 0.006

SUPV3L1 (UniProt Q8IYB8)
inactive: [1] 0.074 | [2] -0.023 | [3] -0.002 | [4] -0.007 | [5] 0.041 | [6] 0 | [7] 0.007 | [8] 0.014 | [9] -0.026 | [10] 0.002 | [11] -0.022 | [12] 0.018 | [13] 0.023 | [14] -0.06 | [15] 0.018 | [16] 0.004 | [17] -0.003 | [18] -0.013 | [19] -0.029 | [20] 0.079

STMN3 (UniProt Q9NZ72)
inactive: [1] 0.026 | [2] 0.021 | [3] -0.078 | [4] 0.076 | [5] 0.028 | [6] -0.104 | [7] 0.01 | [8] -0.015 | [9] 0 | [10] 0.108 | [11] -0.054 | [12] -0.027 | [13] -0.048 | [14] -0.067 | [15] 0.021 | [16] 0.016 | [17] -0.011 | [18] -0.049 | [19] 0.038 | [20] 0.091

SYNJ1 (UniProt O43426)
inactive: [1] -0.07 | [2] 0.09 | [3] 0.007 | [4] 0.021 | [5] -0.072 | [6] 0.095 | [7] 0.075 | [8] 0.059 | [9] 0.076 | [10] 0.148 | [11] -0.039 | [12] 0.051 | [13] -0.014 | [14] -0.009 | [15] 0.095 | [16] -0.217 | [17] 0 | [18] -0.019 | [19] -0.038 | [20] -0.02

TACC3 (UniProt Q9Y6A5)
inactive: [1] 0.02 | [2] 0.002 | [3] 0.004 | [4] -0.023 | [5] -0.048 | [6] 0.041 | [7] -0.004 | [8] -0.009 | [9] -0.039 | [10] 0.082 | [11] 0 | [12] 0.084 | [13] 0.001 | [14] -0.042 | [15] 0.051 | [16] -0.047 | [17] 0.051 | [18] 0.004 | [19] -0.013 | [20] 0.033

STX3 (UniProt Q13277)
inactive: [1] -0.067 | [2] -0.068 | [3] -0.062 | [4] -0.07 | [5] -0.008 | [6] -0.035 | [7] 0.051 | [8] 0.04 | [9] 0.066 | [10] 0.099 | [11] 0.057 | [12] -0.019 | [13] 0.053 | [14] -0.016 | [15] 0.087 | [16] -0.063 | [17] -0.002 | [18] -0.015 | [19] 0.009 | [20] -0.155

TALDO1 (UniProt P37837)
inactive: [1] -0.058 | [2] -0.097 | [3] 0.063 | [4] -0.042 | [5] -0.035 | [6] -0.028 | [7] -0.015 | [8] -0.021 | [9] -0.007 | [10] -0.057 | [11] -0.002 | [12] -0.035 | [13] 0.041 | [14] -0.095 | [15] 0.02 | [16] -0.102 | [17] -0.017 | [18] 0.042 | [19] -0.015 | [20] -0.012

SUPT4H1 (UniProt P63272)
inactive: [1] 0.113 | [2] -0.028 | [3] -0.015 | [4] -0.182 | [5] -0.145 | [6] 0.044 | [7] -0.017 | [8] -0.158 | [9] 0 | [10] 0.142 | [11] 0.084 | [12] 0.147 | [13] 0.096 | [14] -0.233 | [15] 0.081 | [16] 0.051 | [17] 0.093 | [18] 0.08 | [19] -0.104 | [20] 0.176

TAF10 (UniProt Q12962)
inactive: [1] 0.021 | [2] 0.014 | [3] -0.01 | [4] -0.03 | [5] -0.114 | [6] -0.086 | [7] 0.003 | [8] -0.027 | [9] 0.016 | [10] 0.04 | [11] -0.085 | [12] 0.123 | [13] 0.153 | [14] -0.002 | [15] 0.014 | [16] 0.05 | [17] 0.007 | [18] -0.067 | [19] -0.071 | [20] 0.073

Quoted from the listing (2 entries):
SUPV3L1 (UniProt Q8IYB8)
inactive: [1] 0.074 | [2] -0.023 | [3] -0.002 | [4] -0.007 | [5] 0.041 | [6] 0 | [7] 0.007 | [8] 0.014 | [9] -0.026 | [10] 0.002 | [11] -0.022 | [12] 0.018 | [13] 0.023 | [14] -0.06 | [15] 0.018 | [16] 0.004 | [17] -0.003 | [18] -0.013 | [19] -0.029 | [20] 0.079

STMN3 (UniProt Q9NZ72)
inactive: [1] 0.026 | [2] 0.021 | [3] -0.078 | [4] 0.076 | [5] 0.028 | [6] -0.104 | [7] 0.01 | [8] -0.015 | [9] 0 | [10] 0.108 | [11] -0.054 | [12] -0.027 | [13] -0.048 | [14] -0.067 | [15] 0.021 | [16] 0.016 | [17] -0.011 | [18] -0.049 | [19] 0.038 | [20] 0.091

(continued)

TAPT1 (UniProt Q6NXT6)
inactive: [1] -0.058 | [2] 0.011 | [3] -0.023 | [4] -0.033 | [5] -0.066 | [6] -0.042 | [7] 0.029 | [8] 0.062 | [9] -0.029 | [10] 0.024 | [11] -0.024 | [12] 0.059 | [13] -0.047 | [14] -0.025 | [15] 0.002 | [16] 0.039 | [17] -0.006 | [18] -0.039 | [19] 0.044 | [20] 0.02

SZRD1 (UniProt Q7Z422)
inactive: [1] 0.179 | [2] 0.014 | [3] -0.028 | [4] 0.019 | [5] 0.001 | [6] -0.044 | [7] -0.001 | [8] 0.104 | [9] 0.034 | [10] 0.002 | [11] 0.036 | [12] -0.005 | [13] 0.089 | [14] -0.057 | [15] 0.07 | [16] 0.037 | [17] -0.049 | [18] -0.095 | [19] -0.009 | [20] 0.079

STX4 (UniProt Q12846)
inactive: [1] -0.046 | [2] 0.037 | [3] -0.008 | [4] 0.029 | [5] -0.046 | [6] 0.154 | [7] 0.043 | [8] 0.006 | [9] 0.05 | [10] 0.041 | [11] 0.067 | [12] 0.095 | [13] 0.01 | [14] -0.044 | [15] 0.068 | [16] -0.102 | [17] -0.017 | [18] 0.008 | [19] -0.035 | [20] 0.154

TATDN1 (UniProt Q6P1N9)
inactive: [1] -0.006 | [2] -0.001 | [3] -0.067 | [4] 0.017 | [5] -0.046 | [6] 0.001 | [7] 0.026 | [8] 0.04 | [9] -0.002 | [10] -0.04 | [11] 0.048 | [12] -0.003 | [13] -0.115 | [14] -0.031 | [15] 0.02 | [16] 0.029 | [17] -0.061 | [18] -0.063 | [19] 0.042 | [20] 0.003
